According to publication PMC12170873, “The Spc105/Kre28 complex promotes mitotic error correction by outer kinetochore recruitment of Ipl1/Sli15” (The EMBO Journal, 2025):
These are yes or no findings as the source states them, for the method shown. For part of these data: Binding seen in cells or lysates may run through a third protein. Some binding calls cover weakened binding; strength is not graded here. For part of these data: Where a sequence is shown, tags or fusion partners need not be part of it.

The chains behind the UniProt entries cited, without tags or fusion partners. Where a name states a change or a piece, a line headed by the entry shows the natural chain unless it says otherwise.
UniProt P40460: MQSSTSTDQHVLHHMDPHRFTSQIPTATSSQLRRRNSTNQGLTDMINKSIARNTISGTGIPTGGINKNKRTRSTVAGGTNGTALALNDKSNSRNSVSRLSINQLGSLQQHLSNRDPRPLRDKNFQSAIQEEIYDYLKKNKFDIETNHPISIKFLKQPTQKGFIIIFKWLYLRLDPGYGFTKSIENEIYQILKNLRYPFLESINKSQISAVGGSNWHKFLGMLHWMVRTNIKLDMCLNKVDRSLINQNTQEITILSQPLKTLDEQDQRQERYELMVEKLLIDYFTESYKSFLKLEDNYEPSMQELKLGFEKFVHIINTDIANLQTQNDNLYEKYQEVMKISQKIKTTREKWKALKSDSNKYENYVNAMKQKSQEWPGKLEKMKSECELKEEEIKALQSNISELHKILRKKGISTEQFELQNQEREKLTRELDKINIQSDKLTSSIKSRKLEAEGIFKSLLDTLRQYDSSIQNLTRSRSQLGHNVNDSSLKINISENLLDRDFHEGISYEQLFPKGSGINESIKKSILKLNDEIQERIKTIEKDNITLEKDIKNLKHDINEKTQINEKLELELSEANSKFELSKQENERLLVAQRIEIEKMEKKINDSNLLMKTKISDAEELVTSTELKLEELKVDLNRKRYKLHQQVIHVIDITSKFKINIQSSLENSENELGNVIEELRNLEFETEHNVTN
UniProt P33895: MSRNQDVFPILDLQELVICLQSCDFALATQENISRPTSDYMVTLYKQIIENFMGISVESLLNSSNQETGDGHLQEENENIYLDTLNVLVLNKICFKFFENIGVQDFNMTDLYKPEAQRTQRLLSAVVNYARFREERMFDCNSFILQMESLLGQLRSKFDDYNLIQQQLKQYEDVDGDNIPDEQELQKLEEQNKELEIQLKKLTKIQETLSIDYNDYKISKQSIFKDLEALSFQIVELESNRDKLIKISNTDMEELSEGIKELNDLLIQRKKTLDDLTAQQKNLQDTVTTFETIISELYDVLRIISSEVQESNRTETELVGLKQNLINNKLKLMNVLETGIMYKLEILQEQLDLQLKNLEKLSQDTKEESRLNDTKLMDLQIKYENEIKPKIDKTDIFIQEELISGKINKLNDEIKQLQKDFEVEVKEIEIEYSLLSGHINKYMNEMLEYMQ
UniProt Q04477: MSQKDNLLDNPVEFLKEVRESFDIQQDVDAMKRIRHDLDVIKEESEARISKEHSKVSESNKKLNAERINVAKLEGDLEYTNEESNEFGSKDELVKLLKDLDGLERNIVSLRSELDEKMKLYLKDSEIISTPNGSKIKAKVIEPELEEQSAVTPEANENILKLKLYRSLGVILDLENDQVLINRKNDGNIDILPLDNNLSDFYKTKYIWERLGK
UniProt P40014: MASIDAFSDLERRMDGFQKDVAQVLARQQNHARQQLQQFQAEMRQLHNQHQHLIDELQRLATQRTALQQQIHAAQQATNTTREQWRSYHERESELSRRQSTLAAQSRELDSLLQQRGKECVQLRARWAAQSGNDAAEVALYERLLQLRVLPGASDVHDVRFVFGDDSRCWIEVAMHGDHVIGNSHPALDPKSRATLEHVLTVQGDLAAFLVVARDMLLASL

T1: Spc105-Flag/Kre28^ΔZwint complex, as part of the mutant KMN network (S. cerevisiae) (UniProt P53148+Q04431)
T1 sequence 1: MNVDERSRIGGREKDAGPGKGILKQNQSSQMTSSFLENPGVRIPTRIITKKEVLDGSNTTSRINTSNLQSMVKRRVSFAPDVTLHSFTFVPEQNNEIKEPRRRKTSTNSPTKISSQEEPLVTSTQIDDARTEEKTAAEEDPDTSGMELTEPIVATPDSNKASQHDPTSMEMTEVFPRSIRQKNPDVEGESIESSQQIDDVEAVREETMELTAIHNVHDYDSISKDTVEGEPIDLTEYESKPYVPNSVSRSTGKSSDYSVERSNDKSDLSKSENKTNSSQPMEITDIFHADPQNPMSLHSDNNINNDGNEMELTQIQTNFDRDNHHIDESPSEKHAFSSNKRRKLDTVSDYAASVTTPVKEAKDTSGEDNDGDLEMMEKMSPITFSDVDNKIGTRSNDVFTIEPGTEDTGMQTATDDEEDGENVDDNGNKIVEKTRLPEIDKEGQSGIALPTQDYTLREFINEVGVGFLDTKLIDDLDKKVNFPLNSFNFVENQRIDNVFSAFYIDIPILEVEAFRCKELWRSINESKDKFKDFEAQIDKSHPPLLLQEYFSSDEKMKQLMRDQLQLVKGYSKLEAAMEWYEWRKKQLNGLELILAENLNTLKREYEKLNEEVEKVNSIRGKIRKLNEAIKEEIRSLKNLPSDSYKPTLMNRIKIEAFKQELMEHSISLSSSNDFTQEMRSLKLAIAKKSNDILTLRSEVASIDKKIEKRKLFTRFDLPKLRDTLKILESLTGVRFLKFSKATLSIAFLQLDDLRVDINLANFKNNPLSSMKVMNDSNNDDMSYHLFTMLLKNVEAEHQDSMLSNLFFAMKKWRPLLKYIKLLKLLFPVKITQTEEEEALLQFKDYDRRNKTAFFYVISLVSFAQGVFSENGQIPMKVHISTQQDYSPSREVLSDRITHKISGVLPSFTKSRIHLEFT
T1 sequence 2: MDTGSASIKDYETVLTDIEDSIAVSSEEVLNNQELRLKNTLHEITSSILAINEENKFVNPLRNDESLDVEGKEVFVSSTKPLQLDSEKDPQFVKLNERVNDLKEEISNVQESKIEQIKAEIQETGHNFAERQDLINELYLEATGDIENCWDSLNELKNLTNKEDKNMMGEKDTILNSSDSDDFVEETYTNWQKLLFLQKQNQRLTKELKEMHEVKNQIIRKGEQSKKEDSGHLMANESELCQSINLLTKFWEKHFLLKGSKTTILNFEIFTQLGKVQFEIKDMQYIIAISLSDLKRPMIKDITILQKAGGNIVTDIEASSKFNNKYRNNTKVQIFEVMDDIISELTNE

T2: Spc105-Flag/Kre28 complex (S. cerevisiae, UniProt P53148 1-917; Q04431 1-385)
T2 construct: Spc105 (Knl1 homologue), S. cerevisiae; Kre28 (Zwint homologue), S. cerevisiae, wild type; the asterisk is not explained; A potential proteolysis product of full-length Spc105 is marked in the gels; also called Spc105/Kre28; K subcomplex; source: Sf9 insect cells (baculovirus pFAP10), purified on anti-Flag M2 beads; also as part of the co-expressed KMN network (KT1-5 and KT1-6); not shown: Flag, …
T2 sequence (looked up) 1: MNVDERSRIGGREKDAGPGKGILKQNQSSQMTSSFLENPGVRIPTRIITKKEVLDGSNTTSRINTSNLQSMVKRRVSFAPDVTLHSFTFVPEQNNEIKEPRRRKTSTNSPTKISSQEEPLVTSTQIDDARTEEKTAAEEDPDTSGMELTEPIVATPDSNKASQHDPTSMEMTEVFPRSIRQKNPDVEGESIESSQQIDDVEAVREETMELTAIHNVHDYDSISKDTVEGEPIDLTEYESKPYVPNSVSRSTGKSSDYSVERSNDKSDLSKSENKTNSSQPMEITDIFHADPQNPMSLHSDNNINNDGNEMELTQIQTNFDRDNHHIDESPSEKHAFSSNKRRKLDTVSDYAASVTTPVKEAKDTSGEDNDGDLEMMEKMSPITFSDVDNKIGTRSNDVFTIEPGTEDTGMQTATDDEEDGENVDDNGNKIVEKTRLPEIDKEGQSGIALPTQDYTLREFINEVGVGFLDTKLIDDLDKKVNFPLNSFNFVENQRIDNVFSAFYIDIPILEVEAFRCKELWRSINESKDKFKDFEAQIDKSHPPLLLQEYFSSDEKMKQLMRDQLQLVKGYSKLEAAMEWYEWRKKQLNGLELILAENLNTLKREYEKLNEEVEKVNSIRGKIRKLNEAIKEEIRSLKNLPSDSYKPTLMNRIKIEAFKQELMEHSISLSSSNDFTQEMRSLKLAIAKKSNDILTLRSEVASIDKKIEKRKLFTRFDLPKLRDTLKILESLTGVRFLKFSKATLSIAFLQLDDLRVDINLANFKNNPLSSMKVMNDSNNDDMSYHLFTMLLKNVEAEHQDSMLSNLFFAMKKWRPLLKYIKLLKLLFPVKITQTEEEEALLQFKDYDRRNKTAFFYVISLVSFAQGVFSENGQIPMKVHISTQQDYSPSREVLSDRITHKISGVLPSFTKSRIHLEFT
T2 sequence (looked up) 2: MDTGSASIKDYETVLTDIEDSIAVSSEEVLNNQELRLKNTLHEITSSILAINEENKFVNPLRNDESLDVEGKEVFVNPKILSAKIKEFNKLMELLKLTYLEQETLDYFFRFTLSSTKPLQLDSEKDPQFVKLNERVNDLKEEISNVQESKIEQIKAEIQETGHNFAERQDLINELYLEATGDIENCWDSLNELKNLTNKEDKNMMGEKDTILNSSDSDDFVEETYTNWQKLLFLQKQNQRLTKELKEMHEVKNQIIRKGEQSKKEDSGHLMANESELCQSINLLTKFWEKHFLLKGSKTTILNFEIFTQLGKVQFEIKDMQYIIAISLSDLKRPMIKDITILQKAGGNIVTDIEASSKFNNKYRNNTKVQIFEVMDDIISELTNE


Tests used:
[1] = target: T1, Spc105-Flag/Kre28^ΔZwint complex, as part of the mutant KMN network (S. cerevisiae); experiment: pull-down; co-expressed KMN (Kre28^WT or Kre28^ΔZwint) bound from cleared Sf9 lysate to anti-Flag M2 beads via Spc105-Flag; Mtw1c/Ndc80c kept on the beads seen by Coomassie; interaction buffer with 200 mM NaCl, 4 °C; also with prolonged incubation times (Fig. EV3A)
[2] = target: T2, Spc105-Flag/Kre28 complex; experiment: SEC; ten KMN subunits co-expressed in Sf9 cells from two baculoviruses; single-step anti-Flag purification via Spc105-Flag, then analytical SEC on a Superose 6 column
[3] = target: Ndc80 complex (Ndc80, Nuf2, Spc24, Spc25), untagged, as co-expressed in the KMN network (S. cerevisiae) (UniProt P40460+P33895+Q04477+P40014); experiment: cross-linking; cross-links among the subcomplexes inside the co-expressed, co-purified KMN network (in the KMN-Ipl1/Sli15 sample); BS3 (d0/d12), 35 °C, 30 min; mass spectrometry
[4] = target: T2, Spc105-Flag/Kre28 complex; experiment: as above

| binding [1] | binding [2] | binding [3] | binding [4] | Molecule |
| --- | --- | --- | --- | --- |
| binds | binds | – | – | Ndc80 complex (Ndc80, Nuf2, Spc24, Spc25), untagged, as co-expressed in the KMN network (from UniProt P40460 1-691; P33895 1-451; Q04477 1-213; P40014 1-221) |
| binds | binds | binds | binds | Mtw1 complex (Mtw1, Dsn1, Nnf1, Nsl1), as co-expressed in the KMN network (complex, UniProt P39731 1-289; P40568 1-576; P47149 1-201; Q12143 1-216) chain 1: MSAPTMRSTSILTEHLGYPPISLVDDIINAVNEIMYKCTAAMEKYLLSKSKIGEEDYGEEIKSGVAKLESLLENSVDKNFDKLELYVLRNVLRIPEEYLDANVFRLENQKDLVIVDENELKKSEEKLREKVNDVELAFKKNEMLLKRVTKVKRLLFTIRGFKQKLNELLKCKDDVQLQKILESLKPIDDTMTLLTDSLRKLYVDSESTSSTEEVEALLQRLKTNGKQNNKDFRTRYIDIRTNNVLRKLGLLGDKEDEKQSAKPDARTQAGDIVSIDIEEPQLDLLDDVL chain 2: MSLEPTQTVSGTPPMLHQRTHKQVYPLRMETIPILESDSKATLQSNEPTQKDEEETEYFENKQSVSNLSPDLKFKRHKNKHIQGFPTLGERLDNLQDIKKAKRVENFNSSAPIADDNHSGDATANATANATANATANVNASAMPAPYMPYYYYYHPMNAPTPAMIPYPGSPMHSIMPNSSLQPFYSQPTAAGGPDMTTPQNISSSQQLLPAPQLFPYGSFHQQQLQQPHYIQRTRERKKSIGSQRGRRLSMLASQANGGSTIISPHKDIPEEDFYTVVGNASFGKNLQIRQLFNWCLMRSLHKLELKAKNQEEEGELEHLTKKSKLESTKAETDYVDPKRLAMVIIKEFVDDLKKDHIAIDWEDEEKYEDEDEEKILDNTENYDDTELRQLFQENDDDDDDDDEVDYSEIQRSRRKFSERRKALPKEPKKLLPNSKNVENTKNLSILTSKVNAIKNEVKEWAVTLDTSRPDLEWQELTSFSSQPLEPLSDTEEPDLAIADVETKLETKVDELRYQSHILNSHSLALNEITNSKVNKLNIETMRKISSETDDDHSQVINPQQLLKGLSLSFSKKLDL chain 3: MVNSHGIRYIRLKQVFNRALDQSISKLQSWDKVSSCFPQYVNSKQGAINVANCQRQLTEFWTELCQREFKEIMEERNVEQKLNELDELILEAKERYTDRDQDEVNKGPAIDELSSKELVECHLYSQRMHAIHEIDERLAKVNEMNDQLAQELKDLETQVEVEKNEIGKMYDEYLGSHTDQPANVLLVQSLNDMVLELKENY chain 4: MSQGQSKKLDVTVEQLRSIYHQFHDILEEKTDLHLPKKEYDDDAVRREVQIQLQEFLLSAMTMASKSLEVVNADTVGKTVKQLIMESQEKYMEPFDLDLNEQVRKMYQEWEDETVKVAQLRQTGPAKINEVYNNSKDEYLAQLDGRIGVLQARMMQQQSADHDDSTDDADDHINWEHIKQDYVASLNELYQTQQDLPKVRYNVEKVKRLMDFLEED |
